Measured values taken from PubChem BioAssay AID1439 (NMMLSC, 2008).
Screen size: about 220,000 compounds; about 770 (0.35%) were called active. Inconclusive results, whose numbers are uncertain, are shown with a selection of clear calls. Cut-off read from the data, not from the text of the source: active = binding response below about 49% or above about 150%; inconclusive = no clear call, values can overlap the other calls; inactive = in between.

The chains behind the UniProt entries cited, without tags or fusion partners.
UniProt P09471, whole entry, looked up: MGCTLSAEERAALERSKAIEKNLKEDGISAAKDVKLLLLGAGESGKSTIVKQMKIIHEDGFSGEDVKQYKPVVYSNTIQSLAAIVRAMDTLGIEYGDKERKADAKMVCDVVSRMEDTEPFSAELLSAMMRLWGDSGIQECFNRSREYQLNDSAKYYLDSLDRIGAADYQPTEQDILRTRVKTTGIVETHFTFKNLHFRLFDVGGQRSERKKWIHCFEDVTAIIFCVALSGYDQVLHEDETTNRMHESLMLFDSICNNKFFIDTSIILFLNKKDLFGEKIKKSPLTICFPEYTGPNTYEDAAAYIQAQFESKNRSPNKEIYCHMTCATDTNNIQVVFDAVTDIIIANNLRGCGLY

biological target: Guanine nucleotide-binding protein G(o) subunit alpha (Homo sapiens) (UniProt P09471); assay: compounds changing RGS7 association with Galphao – biochemical, multiplexed bead flow cytometry, primary screen (AID 1439); details: at 10 µM, actives lie on both sides;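 note: fluorescent Galphao held in activated GDP-AlF4 state binding bead-coupled RGS7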

Row | Structure (SMILES) | binding response (% of control)
1 | CC1CC2(O)c3nonc3CCC2N1O (stereo not drawn) | inactive: 113%
2 | C/C(=N\Nc1ccccc1)c1c(O)[nH]c(=O)[nH]c1=O | inconclusive: 120%
3 | Cc1ccc(-n2cc(CNC(C)Cc3cnccn3)c(-c3cccc(C)c3)n2)cc1 (stereo not drawn) | inactive: 102%
4 | CN1CCc2nc(SCc3ccccc3Br)c(C#N)cc2C1 | inconclusive: 93.1%
5 | CCN(CC)c1ccc(/C=C2\C(=O)NC(=S)N(C)C2=O)o1 | inconclusive: 96.4%
6 | N#CCCn1cc(C(=O)Nc2ccccc2Br)c(-c2ccc([N+](=O)[O-])cc2)n1 | inactive: 101%
7 | Cc1ccc(C(C)C)c(OCC(=O)N2CCN(Cc3nc4cc([N+](=O)[O-])ccc4n3C)CC2)c1 | inactive: 103%
8 | CCCC(=O)N(C)C1=Nc2ccc(Cl)cc2C(c2ccccc2)=[N+]([O-])C1 | inconclusive: 116%
9 | CN(C)C(=O)Oc1noc2cc(Cl)ccc12 | inconclusive: 150%
10 | COP(=O)(Cc1ccc(C#N)o1)OC | inconclusive: 66.5%
11 | Cn1c(O)c(/C=N/NC(=O)c2ccncc2)c(=O)n(C)c1=S | inconclusive: 93.2%
12 | CCCCNC(=O)CN1C(=O)CN=C(c2ccccc2)c2ccccc21 | inconclusive: 94.8%
13 | CCC(=NCCCN1CCOCC1)c1c(O)n(-c2ccccc2C)c(=O)[nH]c1=O | inconclusive: 198%
14 | c1ccc(CCn2nnnc2CN2CCC(n3nnc4ccccc43)CC2)cc1 | inactive: 128%
15 | CCc1cc(=O)[nH]c(SCCCF)n1 | inactive: 102%
16 | CCOC(=O)c1ccc(N=C(c2ccccc2)c2c(O)n(C)c(=O)n(C)c2=O)cc1 | inconclusive: 95.8%
17 | O=c1[nH]c(=O)n(CC2CCCO2)c(O)c1/C=C1\C=Nc2ccccc21 (stereo not drawn) | inconclusive: 236%
18 | C=CCn1c(O)c(C(C)=Nc2ccc(C(=O)O)cc2)c(=O)[nH]c1=O | inconclusive: 107%
19 | COc1ccc(C(=O)N/N=C/C23CC[C@@H](O)CC2(O)CC[C@@H]2[C@@H]3CCC3(C)C(C4=CC(=O)OC4)CCC23O)cc1 (stereo partly drawn) | inconclusive: 96.9%
20 | CCNc1cc(N2CCNCC2)ccc1[N+](=O)[O-] | inconclusive: 116%

Arranged by molar mass (high to low): part of the list above
Row | Structure (SMILES) | binding response (% of control)
19 | COc1ccc(C(=O)N/N=C/C23CC[C@@H](O)CC2(O)CC[C@@H]2[C@@H]3CCC3(C)C(C4=CC(=O)OC4)CCC23O)cc1 (stereo partly drawn) | inconclusive: 96.9%
13 | CCC(=NCCCN1CCOCC1)c1c(O)n(-c2ccccc2C)c(=O)[nH]c1=O | inconclusive: 198%
4 | CN1CCc2nc(SCc3ccccc3Br)c(C#N)cc2C1 | inconclusive: 93.1%

Next part.

Row | Structure (SMILES) | binding response (% of control)
21 | CCN(CC)C(=O)c1ccc(NC(=O)Nc2ccccc2F)cc1 | inconclusive: 88.5%
22 | Cc1ccccc1-n1c(O)c(/C=N/NC(=O)c2ccccc2O)c(=O)[nH]c1=S | inconclusive: 62.2%
23 | O=c1[nH]c(=S)n(C2CC2)c(O)c1C=NCCc1ccccc1 | inconclusive: 43.7%
24 | CC(C)c1ccc(N=Cc2c(O)n(C3CC3)c(=S)[nH]c2=O)cc1 | inconclusive: 122%
25 | CSc1nc(N)c(N=Nc2ccc([As](=O)(O)O)cc2)c(=O)[nH]1 | inconclusive: 134%
26 | N=Cc1c(O)n(-c2ccccc2)c(=O)n(-c2ccccc2)c1=O | inconclusive: 117%
27 | Cn1c(O)c(C(=Nc2ccccc2)SCc2ccc(Cl)cc2)c(=O)n(C)c1=O | inconclusive: 99.8%
28 | O=C1NC(=O)N(c2ccc3c(c2)OCO3)C(=O)/C1=C/c1ccsc1 | inconclusive: 58.5%
29 | CC(Cc1ccccc1)[n+]1cc(/N=C(\N)[O-])on1 (stereo not drawn) | inactive: 109%
30 | CNC(C(=O)c1ccccc1)C(OC)c1cccc([N+](=O)[O-])c1 (stereo not drawn) | inconclusive: 100%
31 | O=c1c2ccccc2nc(Cc2ccccc2)n1-c1ccccc1O | inconclusive: 93.6%
32 | CCCCc1ncc(CN2CCCC(C(=O)c3ccc(SC)cc3)C2)[nH]1 (stereo not drawn) | inactive: 112%
33 | Cn1cccc1/C=C1/C(=O)NC(=O)N(Cc2ccc(F)cc2)C1=O | inconclusive: 129%
34 | CCCc1c(C)nc(-c2ccc(C)cc2)nc1OC(=O)N(C)C | inconclusive: 88.9%
35 | CN1C(=O)N(C)C(=O)C2(Cc3ccccc3N3CCCC32)C1=O (stereo not drawn) | inconclusive: 104%
36 | Cc1ccc(C2C(S(C)(=O)=O)=C(O)C(=O)N2c2ccccc2)cc1 (stereo not drawn) (tested in a mixture with another compound) | inactive: 94.3%
37 | CC(=O)Nc1ccccc1C(=O)OCc1ccc(F)cc1 | inconclusive: 94.4%
38 | CP(=O)(Nc1ccc(Cl)cc1)c1nc2c(s1)CCCC2 (stereo not drawn) | inconclusive: 118%
39 | C=CCn1c(O)c(/C(C)=N/N2CCCCC2)c(=O)[nH]c1=O | inconclusive: 95.8%
40 | COc1ccc(C(=O)C23CN4CN(CN(C4)C2)C3)cc1 | inactive: 116%

Row | Structure (SMILES) | binding response (% of control)
41 | N#CCCn1cc(C(=O)O)c(-c2cccc([N+](=O)[O-])c2)n1 | inconclusive: 116%
42 | O=C1N(c2nncs2)CCN1[N+](=O)[O-] | inconclusive: 180%
43 | COc1ccc(OC)c(N=Cc2c(O)n(Cc3ccccc3)c(=S)[nH]c2=O)c1 | inconclusive: -96.5%
44 | O=c1[nH]c(=O)n(Cc2ccc(F)cc2)c(O)c1/C=N/Nc1ccccc1 | inconclusive: 109%
45 | CC1CN=C(NCc2ccccc2)S1 (stereo not drawn) | inactive: 97.4%
46 | CCc1nc2ccc(N3CCN(C)CC3)cc2nc1CC | inconclusive: 90.8%
47 | CN1CCN(c2cc([N+](=O)[O-])ccc2Cl)CC1 | inactive: 101%
48 | Cc1ccc2[nH]c(=S)n(-c3cccnc3)c(=O)c2c1 | inconclusive: 443%
49 | CC(C)(C)C(=O)c1cn(Cc2ccccc2)c2ccccc12 | inconclusive: 96.1%
50 | O=C1C2C3CCC(O3)C2C(=O)N1CCO (stereo not drawn) | inconclusive: 100%
51 | O=CC(Br)P(=O)(N1CCOCC1)N1CCOCC1 (stereo not drawn) | inconclusive: 100%
52 | CNC(=O)Nc1ccc(C(O)(C(=O)OC)C(F)(F)F)cc1 (stereo not drawn) | inconclusive: 75%
53 | Cn1c(O)c(C=Nc2ccccc2-c2ccccc2)c(=O)n(C)c1=O | inconclusive: 105%
54 | O=S(=O)(c1ccc(F)cc1)N1CCCC1c1cccnc1 (stereo not drawn) | inconclusive: 105%
55 | O=[N+]([O-])c1cc([As](=O)(O)c2ccc(O)c([N+](=O)[O-])c2)ccc1O | inconclusive: 148%
56 | COC(=O)C(O)(c1ccc(NC(=S)NC(=O)c2ccc(Cl)cc2Cl)cc1)C(F)(F)F (stereo not drawn) | inactive: 101%
57 | Cc1nc2ccc(P(=O)(O)O)cc2s1 | inactive: 101%
58 | O=c1oc2ccccc2c(O)c1[C@H]1c2ccc(O)cc2Oc2c1c(=O)oc1ccccc21 | inconclusive: 94%
